Library screening results

The chains behind the UniProt entries cited, without tags or fusion partners.
UniProt E9BF75, entry or part of it: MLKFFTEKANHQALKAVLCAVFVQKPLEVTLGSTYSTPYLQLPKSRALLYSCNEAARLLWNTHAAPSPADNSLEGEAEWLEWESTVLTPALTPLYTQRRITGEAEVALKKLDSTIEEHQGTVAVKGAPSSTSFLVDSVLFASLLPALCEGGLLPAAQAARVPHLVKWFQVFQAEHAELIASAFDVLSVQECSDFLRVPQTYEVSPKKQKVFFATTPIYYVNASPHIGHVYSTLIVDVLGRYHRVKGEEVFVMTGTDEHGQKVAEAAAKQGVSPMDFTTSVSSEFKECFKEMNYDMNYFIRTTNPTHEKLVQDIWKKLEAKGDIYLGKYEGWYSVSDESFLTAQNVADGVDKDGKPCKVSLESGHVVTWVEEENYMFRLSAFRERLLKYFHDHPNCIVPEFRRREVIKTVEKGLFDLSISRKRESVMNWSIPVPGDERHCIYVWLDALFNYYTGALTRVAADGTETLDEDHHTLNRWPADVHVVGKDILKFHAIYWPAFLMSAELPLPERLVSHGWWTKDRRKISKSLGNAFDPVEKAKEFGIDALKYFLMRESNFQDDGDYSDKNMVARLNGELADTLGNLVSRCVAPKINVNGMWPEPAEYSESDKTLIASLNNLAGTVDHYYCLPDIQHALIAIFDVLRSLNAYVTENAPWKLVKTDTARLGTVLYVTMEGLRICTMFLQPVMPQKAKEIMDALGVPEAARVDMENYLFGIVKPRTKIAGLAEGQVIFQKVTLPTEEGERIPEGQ

From ChEMBL document CHEMBL3988442, “University of Dundee, Small-Polar-MMV Screening Library” (2021).

Results are percentages, as filed. The controls that fix the scale are not given in the record; negative values are as filed. This is an unselected part of the compounds tested.

LdMetRS: 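Methionyl-tRNA synthetase (putative), Leishmania donovani (UniProt E9BF75). Primary screen of methionyl-tRNA synthetase; the read-out is not stated. The test concentration is not given. The values are filed as inhibition. Size under these conditions: about 68,000 compounds, about 24 of them at 50% or above in at least one test.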
Mtb heat-shock: 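Assay on Mycobacterium tuberculosis, filed only as a heat shock assay from Cornell; the read-out is not stated. The concentration is filed as 10 mM, unlikely as a test dose, so the dose is not known. The record gives no direction; compounds that gave an IC50 in retests scored well above the rest, so higher reads as stronger inhibition. Of about 69,000 compounds tested this way, about 930 (1.4%) reached 50% or more in at least one test.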

{"compound": "COCC(=O)NCCc1ccc(Cl)s1", "LdMetRS": 9.116, "Mtb heat-shock": 29.89}
{"compound": "COc1ccsc1C(=O)N1CCCC(n2nc(C)nc2C)C1", "stereo": "stereo not given", "LdMetRS": 4.225, "Mtb heat-shock": -0.5875}
{"compound": "CCCS(=O)(=O)N1Cc2nccn2CC(Cn2cncn2)C1", "stereo": "stereo not given", "LdMetRS": 2.186, "Mtb heat-shock": -21.61}
{"compound": "C[S+]([O-])CCNCc1ccc(OCc2cscn2)cc1", "stereo": "stereo not given", "LdMetRS": 17.83, "Mtb heat-shock": -8.669}
{"compound": "O=c1c2ccccc2nnn1CN(CC1CCOC1)C1CC1", "stereo": "stereo not given", "LdMetRS": 3.106, "Mtb heat-shock": -6.98}
{"compound": "CCn1nc(C(=O)N2CCNCC2C(=O)Nc2ccc(C)nc2)cc1C", "stereo": "stereo not given", "LdMetRS": 5.923, "Mtb heat-shock": -21.28}
{"compound": "Cc1nn(C)c(C)c1C1CCCN1C(=O)CCc1ccco1", "stereo": "stereo not given", "LdMetRS": 22.73, "Mtb heat-shock": -1.642}
{"compound": "CC(C)[C@@H]1CN(Cc2ccccc2C#N)C[C@H]1NC(=O)N(C)C", "LdMetRS": 18.37, "Mtb heat-shock": -16.92}
{"compound": "O=C(CCc1nc(Cl)n[nH]1)NC1CCCN(CC2CCCCC2)C1", "stereo": "stereo not given", "LdMetRS": 8.798, "Mtb heat-shock": 10.68}
{"compound": "CN1CCCCC[C@@H]2[C@@H]1[C@H](c1ccccc1)CN2C(=O)c1cccnc1", "LdMetRS": 12.5}
{"compound": "Cc1ccc2oc(C(=O)N3CCc4nnc(N(C)C)cc4C3)cc2n1", "LdMetRS": 20.98, "Mtb heat-shock": -9.957}
{"compound": "Cc1ccc(OCC(=O)NCc2sccc2C)nc1", "LdMetRS": 7.801, "Mtb heat-shock": 13.94}
{"compound": "N#Cc1c(C2CC2)cc(-c2ccc(F)c(F)c2)nc1N", "LdMetRS": 15.41, "Mtb heat-shock": 4.424}
{"compound": "C[C@@H](O)CNc1c(NCc2ccco2)c(=O)c1=O", "LdMetRS": 12.74, "Mtb heat-shock": -0.5141}
{"compound": "Cc1nccn1-c1cccc(C2CCCN2)n1", "stereo": "stereo not given", "LdMetRS": 13.83}
{"compound": "Cc1ccn(CCNC(=O)C2(C)CC(c3ccccc3)=NO2)n1", "stereo": "stereo not given", "LdMetRS": 15.96, "Mtb heat-shock": -17.95}
{"compound": "O=C(CCC(=O)N1CCc2[nH]c3ccccc3c2C1)NCc1ccco1", "LdMetRS": 11.8, "Mtb heat-shock": -16.42}
{"compound": "CC(C)(C)OC(=O)NCCNC(=O)c1ccc2cc[nH]c2c1", "LdMetRS": 10.97, "Mtb heat-shock": 7.691}
{"compound": "CN(CCc1ccncc1)C(=O)C1CSCN1C(=O)C(C)(C)C", "stereo": "stereo not given", "LdMetRS": 5.013, "Mtb heat-shock": -3.493}
{"compound": "CC(SCC(=O)NC(N)=O)c1ccccc1F", "stereo": "stereo not given", "LdMetRS": 16.42, "Mtb heat-shock": -30.41}
{"compound": "Nc1cc(N2CCCC2c2cnccn2)ncn1", "stereo": "stereo not given", "LdMetRS": 16.1, "Mtb heat-shock": -13.66}
{"compound": "Nc1ccnc(N2C[C@@H]3CC[C@H](C2)N(CC2CCC2)C3=O)n1", "LdMetRS": 5.625}
{"compound": "O=C(O)C(F)(F)F.O=C(O)C(F)(F)F.[H][C@]12CCC[C@@H](CNC(C)(C)C)[C@@]1([H])CN(Cc1csnn1)C2", "Mtb heat-shock": -3.999}
{"compound": "O=C1COc2ccc(C(=O)NS(=O)(=O)c3ccccc3Cl)cc2N1", "LdMetRS": 11.43, "Mtb heat-shock": 6.853}
{"compound": "CC(NC(=O)NC1CC1)c1nc(-c2ccccc2)cs1", "stereo": "stereo not given", "LdMetRS": 24.46, "Mtb heat-shock": 16.87}
{"compound": "CCn1c(C)nnc1SCCNC(=O)c1cccc2ccnn12", "LdMetRS": -6.812, "Mtb heat-shock": 12.85}
{"compound": "Cc1ccc(Cl)c(CN2CCC3(CC2)C(C(=O)O)CC(=O)N3C)c1F", "stereo": "stereo not given", "LdMetRS": 14.38, "Mtb heat-shock": 4.137}
{"compound": "O=C(O)C(F)(F)F.O=C(c1cc[nH]n1)N1CCc2onc(COc3cccnc3)c2C1", "Mtb heat-shock": 4.696}
{"compound": "COCc1cccc(CNC(=O)CN2CCCC2c2noc(C)n2)c1", "stereo": "stereo not given", "LdMetRS": 15.31, "Mtb heat-shock": 3.045}
{"compound": "CN(c1nc(Cn2cc(Br)ccc2=O)cs1)C1CC1", "LdMetRS": 14.65, "Mtb heat-shock": -25.1}
{"compound": "COc1c(C2CCCN2C(=O)c2ccoc2C)c(C)nn1C", "stereo": "stereo not given", "LdMetRS": 5.686, "Mtb heat-shock": -5.267}
{"compound": "Cc1ccc([C@]2(O)CC[C@H]3CN(Cc4ccc(Cl)cc4Cl)C[C@H]32)nc1", "LdMetRS": 6.78}
{"compound": "CNCC(=O)N1CCC(c2cccc(Oc3ccccc3)n2)CC1", "LdMetRS": 20.25, "Mtb heat-shock": 4.37}
{"compound": "CCS(=O)(=O)N1CCC(c2nnc(C(F)(F)F)o2)CC1", "LdMetRS": 11.8, "Mtb heat-shock": 34.19}
{"compound": "CCn1ccnc1CN1CCCN(C(=O)c2csc(C)n2)CC1", "LdMetRS": 15.79, "Mtb heat-shock": 33.68}
{"compound": "Cc1cccc(N2CCN(C(=O)CNCCn3cc(C)cn3)CC2)c1", "LdMetRS": 11.02, "Mtb heat-shock": -16.76}
{"compound": "Cc1cc(C2CCCN2C(=O)NCc2cccnc2N(C)C)on1", "stereo": "stereo not given", "LdMetRS": 2.933, "Mtb heat-shock": -17.33}
{"compound": "CC(Cn1cccn1)NC(=O)Cc1cccs1", "stereo": "stereo not given", "LdMetRS": 13.29, "Mtb heat-shock": -7.691}
{"compound": "COCCOC1CCN(C(C(=O)O)c2c(Cl)cccc2OC)CC1", "stereo": "stereo not given", "LdMetRS": 20.63, "Mtb heat-shock": -25.66}
{"compound": "O=C(CC1CCCC1)N1CCn2cc(Cn3cccn3)nc2C1", "LdMetRS": 12.44}
{"compound": "NC(=O)c1ccc(CN2CCCC(O)C2)cc1", "stereo": "stereo not given", "LdMetRS": 17.14, "Mtb heat-shock": 0.8238}
{"compound": "CS(=O)(=O)c1ccc(-c2cnc(C3CCCN3)cn2)cc1", "stereo": "stereo not given", "LdMetRS": 10.25}
{"compound": "CN(CCOc1ccc(C#N)cc1)CC1CC1", "LdMetRS": 2.168, "Mtb heat-shock": -6.201}
{"compound": "[H][C@@]12CN(CC(CC)CC)C[C@]1([H])OCCN2Cc1cnn(C)c1", "Mtb heat-shock": -12.17}
{"compound": "[H][C@@]12C[C@H](c3nc(C)no3)CN(S(C)(=O)=O)[C@]1([H])CCO2", "Mtb heat-shock": -3.087}
{"compound": "Cc1c(C(C)NC2CCOCC2)cnn1-c1ccc(F)cc1F", "stereo": "stereo not given", "LdMetRS": 2.703, "Mtb heat-shock": -22.56}
{"compound": "[H][C@@]12CN(C3CCOCC3)C[C@]1([H])N(CCCc1ccc(OC)cc1)C(=O)O2", "Mtb heat-shock": -23.06}

Some entries from above, unchanged:

- Cc1c(C(C)NC2CCOCC2)cnn1-c1ccc(F)cc1F (stereo not given) : LdMetRS: 2.703%; Mtb heat-shock: -22.56%
- Cc1ccc(Cl)c(CN2CCC3(CC2)C(C(=O)O)CC(=O)N3C)c1F (stereo not given) : LdMetRS: 14.38%; Mtb heat-shock: 4.137%
- N#Cc1c(C2CC2)cc(-c2ccc(F)c(F)c2)nc1N : LdMetRS: 15.41%; Mtb heat-shock: 4.424%
- COCCOC1CCN(C(C(=O)O)c2c(Cl)cccc2OC)CC1 (stereo not given) : LdMetRS: 20.63%; Mtb heat-shock: -25.66%
- CNCC(=O)N1CCC(c2cccc(Oc3ccccc3)n2)CC1 : LdMetRS: 20.25%; Mtb heat-shock: 4.37%